Measurements reported in the supplement of paper PMC6078165.

System: MDAMB231
Assay: relative JC-1 red fluorescence (viability) vs pre-drug, coculture with fibroblast (fraction); higher = more viable cancer cells
Procedure: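 JC-1 labelled TNBC cells cocultured 1:1 (1,500 cells each) with CellTrace Violet stained primary or stromal fibroblasts in 384-well plates in FluoroBrite medium, treated with one of 42 anticancer drugs at 0.1, 1, 10 or 100 uM. JC-1 red fluorescence (mitochondrial integrity in cancer cells only) was read by plate reader every 8 h for 72 h. Values are normalised to each well's pre-drug value. The stock of one drug was tenfold lower, so its dose labels may be too high.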

N#Cc1ccc(C(c2ccc(C#N)cc2)n2cncn2)cc1 [Letrozole]
relative JC-1 red fluorescence
Details | 8 h | 16 h | 24 h | 32 h | 40 h | 48 h | 56 h | 64 h | 72 h
0.1 µM, coculture fibroblast: C12385 | 0.764 | 0.7099 | 0.622 | 0.585 | 0.522 | 0.491 | 0.443 | 0.437 | 0.4097
0.1 µM, coculture fibroblast: H6013 | 0.866 | 0.811 | 0.781 | 0.77 | 0.724 | 0.6873 | 0.6679 | 0.6442 | 0.609
0.1 µM, coculture fibroblast: H6019 | 0.801 | 0.777 | 0.733 | 0.708 | 0.668 | 0.636 | 0.592 | 0.565 | 0.524
0.1 µM, coculture fibroblast: H6076 | 0.82 | 0.904 | 0.871 | 0.846 | 0.809 | 0.778 | 0.742 | 0.715 | 0.698
0.1 µM, coculture fibroblast: H6231 | 0.939 | 0.8299 | 0.743 | 0.687 | 0.635 | 0.593 | 0.549 | 0.527 | 0.501
0.1 µM, coculture fibroblast: HADF | 0.884 | 0.817 | 0.774 | 0.7365 | 0.695 | 0.652 | 0.634 | 0.617 | 0.569
0.1 µM, coculture fibroblast: HCFa | 0.8879 | 0.806 | 0.749 | 0.706 | 0.6425 | 0.5884 | 0.56 | 0.524 | 0.4731
0.1 µM, coculture fibroblast: HCPF | 0.895 | 0.792 | 0.74 | 0.714 | 0.657 | 0.617 | 0.58 | 0.547 | 0.528
0.1 µM, coculture fibroblast: HHSteC | 0.8708 | 0.806 | 0.752 | 0.6873 | 0.64 | 0.604 | 0.56 | 0.538 | 0.497
0.1 µM, coculture fibroblast: HMF | 0.861 | 0.752 | 0.687 | 0.646 | 0.596 | 0.548 | 0.507 | 0.489 | 0.4652
0.1 µM, coculture fibroblast: HPFa | 0.942 | 0.871 | 0.8229 | 0.762 | 0.723 | 0.682 | 0.624 | 0.589 | 0.53
0.1 µM, coculture fibroblast: HUF | 0.8818 | 0.738 | 0.755 | 0.64 | 0.578 | 0.555 | 0.502 | 0.499 | 0.472
0.1 µM, coculture fibroblast: Hs5 | 0.887 | 0.8025 | 0.721 | 0.66 | 0.606 | 0.555 | 0.503 | 0.472 | 0.434
0.1 µM, coculture fibroblast: Hs27A | 0.8766 | 0.7919 | 0.741 | 0.717 | 0.661 | 0.588 | 0.592 | 0.572 | 0.522
0.1 µM, coculture fibroblast: Hs343T | 0.859 | 0.721 | 0.672 | 0.634 | 0.582 | 0.537 | 0.494 | 0.481 | 0.459
0.1 µM, coculture fibroblast: WS1 | 0.789 | 0.727 | 0.657 | 0.614 | 0.559 | 0.534 | 0.492 | 0.474 | 0.444
1 µM, coculture fibroblast: C12385 | 0.766 | 0.716 | 0.679 | 0.61 | 0.545 | 0.523 | 0.4853 | 0.483 | 0.466
1 µM, coculture fibroblast: H6013 | 0.897 | 0.812 | 0.76118 | 0.748 | 0.7 | 0.679 | 0.665 | 0.642 | 0.59
1 µM, coculture fibroblast: H6019 | 0.729 | 0.639 | 0.647 | 0.575 | 0.538 | 0.5263 | 0.489 | 0.4789 | 0.436
1 µM, coculture fibroblast: H6076 | 0.862 | 0.774 | 0.729 | 0.711 | 0.681 | 0.656 | 0.643 | 0.6372 | 0.625
1 µM, coculture fibroblast: H6231 | 0.932 | 0.8425 | 0.755 | 0.712 | 0.649 | 0.614 | 0.563 | 0.539 | 0.511
1 µM, coculture fibroblast: HADF | 0.8838 | 0.8468 | 0.781 | 0.759 | 0.715 | 0.68534 | 0.6533 | 0.619 | 0.5723
1 µM, coculture fibroblast: HCFa | 0.916 | 0.841 | 0.801 | 0.778 | 0.725 | 0.673 | 0.648 | 0.604 | 0.546
1 µM, coculture fibroblast: HCPF | 0.866 | 0.775 | 0.701 | 0.673 | 0.618 | 0.579 | 0.536 | 0.512 | 0.491
1 µM, coculture fibroblast: HHSteC | 0.9 | 0.848 | 0.809 | 0.749 | 0.713 | 0.684 | 0.641 | 0.622 | 0.568
1 µM, coculture fibroblast: HMF | 0.9043 | 0.8029 | 0.715 | 0.678 | 0.612 | 0.569 | 0.5238 | 0.49965 | 0.4742
1 µM, coculture fibroblast: HPFa | 0.946 | 0.905 | 0.864 | 0.801 | 0.772 | 0.739 | 0.679 | 0.648 | 0.592
1 µM, coculture fibroblast: HUF | 0.8363 | 0.7298 | 0.739 | 0.591 | 0.533 | 0.5154 | 0.4653 | 0.461 | 0.444
1 µM, coculture fibroblast: Hs5 | 0.873 | 0.788 | 0.734 | 0.677 | 0.63 | 0.581 | 0.533 | 0.509 | 0.47
1 µM, coculture fibroblast: Hs27A | 0.8654 | 0.8088 | 0.782 | 0.758 | 0.716 | 0.6681 | 0.65512 | 0.6326 | 0.569
1 µM, coculture fibroblast: Hs343T | 0.889 | 0.779 | 0.692 | 0.653 | 0.587 | 0.528 | 0.469 | 0.442 | 0.41
1 µM, coculture fibroblast: WS1 | 0.756 | 0.6823 | 0.6232 | 0.5714 | 0.522 | 0.489 | 0.446 | 0.429 | 0.402

The reference is the same well before dosing, and untreated signal decays as well.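 Fibroblast labels denote human fibroblasts, mainly primary ones from uterus (C12385, HUF), lung (H6013), bone (Hs27A), adrenal (HADF) and skin (WS1), plus mammary HMF and breast cancer-associated Hs343T. Cancer cells are basal-like or mesenchymal-like triple-negative breast cancer lines. A hit is a response shift exceeding 3x replicate standard deviation. The tissue of the other fibroblasts is not given here.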
